According to article PMC5349237:
Results are given in words; binding and its absence hold for the method and conditions named. In cells and extracts the contact can be indirect. Some entries that bind do so weakly or less than the wild type.

The chains behind the UniProt entries cited, without tags or fusion partners.
UniProt O14727: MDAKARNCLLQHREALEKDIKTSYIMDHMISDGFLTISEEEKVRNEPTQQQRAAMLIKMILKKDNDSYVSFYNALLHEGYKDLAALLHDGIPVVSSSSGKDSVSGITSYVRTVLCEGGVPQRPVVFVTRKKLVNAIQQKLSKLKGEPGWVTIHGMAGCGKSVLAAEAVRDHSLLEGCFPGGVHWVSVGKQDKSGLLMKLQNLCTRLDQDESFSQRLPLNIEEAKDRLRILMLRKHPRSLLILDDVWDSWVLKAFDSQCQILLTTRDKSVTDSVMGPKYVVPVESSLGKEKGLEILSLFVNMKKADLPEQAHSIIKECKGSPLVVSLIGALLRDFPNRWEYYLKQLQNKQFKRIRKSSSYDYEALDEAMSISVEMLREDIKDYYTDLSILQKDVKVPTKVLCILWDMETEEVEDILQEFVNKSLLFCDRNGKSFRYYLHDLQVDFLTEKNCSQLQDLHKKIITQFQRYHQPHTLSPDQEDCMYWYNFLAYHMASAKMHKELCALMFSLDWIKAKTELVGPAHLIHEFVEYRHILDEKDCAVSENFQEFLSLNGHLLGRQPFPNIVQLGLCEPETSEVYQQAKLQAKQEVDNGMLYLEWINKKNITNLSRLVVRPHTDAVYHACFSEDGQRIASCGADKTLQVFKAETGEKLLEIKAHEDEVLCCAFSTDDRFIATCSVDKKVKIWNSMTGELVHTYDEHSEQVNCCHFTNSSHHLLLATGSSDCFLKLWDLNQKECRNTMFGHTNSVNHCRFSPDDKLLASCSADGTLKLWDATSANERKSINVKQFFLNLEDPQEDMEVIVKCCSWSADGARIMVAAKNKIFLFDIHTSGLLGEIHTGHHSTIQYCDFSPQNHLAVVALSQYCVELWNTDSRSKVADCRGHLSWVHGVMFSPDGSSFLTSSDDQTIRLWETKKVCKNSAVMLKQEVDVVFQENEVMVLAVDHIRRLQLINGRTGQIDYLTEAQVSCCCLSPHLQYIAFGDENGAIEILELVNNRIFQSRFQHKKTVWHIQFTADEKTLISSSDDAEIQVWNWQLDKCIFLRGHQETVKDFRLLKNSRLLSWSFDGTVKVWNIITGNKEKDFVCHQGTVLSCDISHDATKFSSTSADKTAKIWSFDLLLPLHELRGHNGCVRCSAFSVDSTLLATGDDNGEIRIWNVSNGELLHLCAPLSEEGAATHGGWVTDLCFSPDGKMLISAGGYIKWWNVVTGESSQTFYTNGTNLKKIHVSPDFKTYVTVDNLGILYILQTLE
UniProt P62894: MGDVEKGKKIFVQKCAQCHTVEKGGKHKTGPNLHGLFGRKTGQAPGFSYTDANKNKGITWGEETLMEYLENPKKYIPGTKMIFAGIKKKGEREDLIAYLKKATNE

Target: apoptotic protease activating factor 1 (Apaf-1) (human (endogenous in Jurkat)) (UniProt O14727)
Assay: co-IP; cell-free cytosolic Jurkat extract, with or without preincubation with T. gondii (1 × 10^8 per ml), activated with 10 µg/ml cytochrome c, 250 µM dATP and 250 µM DTT; Apaf-1 precipitated with anti-Apaf-1 (clone 24) and protein A-Sepharose with 100 µM Ac-DMQD-CHO; blot for cytochrome c; only the binder purified

cytochrome c (from UniProt P62894 1-105)
binding: binds
